Over roughly 2,300 compounds, “plate-normalized OD600 growth (mean of duplicates)” has its median near 0.29; the lowest 2% begin near 0.22. Some of the results follow.
Tested on: Escherichia coli BW25113
Test: plate-normalized OD600 growth (mean of duplicates) (OD600 (normalized)); higher = more growth (less inhibition)
Conditions: 10 µM
Description: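 E. coli BW25113 in LB (100 µl, 96-well, no shaking) was exposed to 10 µM of each compound from a ~30,000-member library and grown at 37°C for 24 h or 15°C for 48 h, in duplicate. Growth was read as OD600 and the duplicate ODs were normalized across screening plates to correct plate-to-plate variation. Hits were >3σ below the mean OD600 at 15°C and <2σ below the mean at 37°C.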

| Structure (SMILES) | plate-normalized OD600 growth (temperature: 15°C, 48 h) | plate-normalized OD600 growth (temperature: 37°C, 24 h) |
| --- | --- | --- |
| CCOC(=O)c1[nH]c(=O)[nH]c1CSc1ccccn1 | 0.245 | 0.621 |
| FC(F)(F)c1ccnc(-n2ccc(-c3cccs3)n2)n1 | 0.277 | 0.637 |
| O=c1occ(CO)c(O)c1CN1CCCCC1 | 0.259 | 0.621 |
| COC(=O)C1=C(C(=O)OC)SC(=CC(=S)c2ccccc2)S1 | 0.251 | 0.616 |
| Cc1ccc(-n2cnnn2)cc1N | 0.26 | 0.626 |
| COc1ccc(C(=O)N2CCN(c3c(C)cccc3C)CC2)cc1OC | 0.257 | 0.622 |
| Cc1ccc(OCC(=O)NN)c2c1CCC2 | 0.245 | 0.605 |
| Clc1ccc2nc(N3CCOCC3)nc(-c3ccccc3)c2c1 | 0.251 | 0.61 |
| CCCCOc1ccc(C(CC(=O)c2ccc(OC)cc2)Nc2ccc(Br)cc2)cc1 (stereo not drawn) | 0.245 | 0.61 |
| O=C(OCc1ccccc1)c1cccc(-c2nnn(Cc3ccccc3)n2)c1 | 0.252 | 0.606 |
| CCCc1ccc(OCC(=O)NNC(=S)Nc2ccccc2)cc1 | 0.244 | 0.618 |
| COc1ccc(C2NC(=O)C(=O)C2=C(O)c2ccc(C)cc2)cc1 (stereo not drawn) | 0.252 | 0.644 |
| O=[N+]([O-])c1ccc(C2=Nn3c(nnc3C(F)(F)F)SC2)cc1 | 0.258 | 0.621 |
| CCN(CC)c1ccc(/C=C(/NC(=O)c2ccccc2)C(=O)N/N=C/c2c(C)cc(O)c(C)c2O)cc1 | 0.23 | 0.599 |
| CC(C)(Oc1ccccc1Cl)C(=O)Nc1ccc(Cc2ccncc2)cc1 | 0.242 | 0.606 |
| O=C(Oc1ccc(N(C(=O)c2ccccc2)S(=O)(=O)c2cccs2)cc1)c1ccccc1 | 0.225 | 0.622 |
| O=C(c1cc(Br)ccc1NS(=O)(=O)c1ccc(Cl)cc1)N1CCN(S(=O)(=O)c2ccc(Cl)cc2)CC1 | 0.26 | 0.613 |
| O=C(Cn1nnc(-c2ccc3c(c2)OCO3)n1)N1CCOCC1 | 0.253 | 0.625 |
| Nc1nonc1-c1noc(COc2c(F)c(F)cc(F)c2F)n1 | 0.234 | 0.615 |
| COc1ccc(Nc2nc(N/N=C/c3ccc(-c4cccc(C(=O)O)c4)o3)nc(Nc3ccccc3)n2)cc1 | 0.226 | 0.634 |
| COC(=O)C[n+]1ccn2c(C)ccc2c1C | 0.242 | 0.619 |
| CCOC(=O)C(=CNNC(=O)c1ccccc1-n1cccc1)C(=O)OCC | 0.213 | 0.618 |
| COc1ccc(S(=O)(=O)CCc2ccncc2)cc1 | 0.236 | 0.614 |
| Cc1cc(C)c2c(-n3cccc3)c(C(=O)NCCO)sc2n1 | 0.254 | 0.609 |

| Structure (SMILES) | plate-normalized OD600 growth (temperature: 15°C, 48 h) | plate-normalized OD600 growth (temperature: 37°C, 24 h) |
| --- | --- | --- |
| CCn1c(C)c(C(C)=O)c(N2CCC(C(N)=O)CC2)nc1=S | 0.232 | 0.607 |
| Nc1nnnn1/N=C/c1ccc(-c2cccc(Cl)c2Cl)o1 | 0.247 | 0.601 |
| C=Cn1c(C(=O)O)ccc1-c1ccc(C)cc1 | 0.254 | 0.645 |
| CCOc1cccc(N2C(=O)CC(NNC(=O)c3ccccc3)C2=O)c1 (stereo not drawn) | 0.246 | 0.603 |
| CC(C)(Cc1ccc(O)cc1)NC[C@H](O)c1cc(O[C@@H]2O[C@H](C(=O)O)[C@@H](O)[C@H](O)[C@H]2O)cc2c1OCC(=O)N2 | 0.247 | 0.604 |
| CC(C)(C)OC(=O)N[C@H](C#N)Cc1ccccc1 | 0.239 | 0.619 |
| CC1SC2(C(=O)Nc3ccccc32)N(c2ccc(F)cc2)C1=O (stereo not drawn) | 0.224 | 0.649 |
| COC(=O)[C@@H]1C(c2ccccc2)=NN(c2ccccc2)[C@@]1(C(=O)OC)C(C)C | 0.247 | 0.611 |
| Cc1cccc(O)c1N=Cc1cc(C(=O)O)ccc1O | 0.247 | 0.638 |
| N#CC1=C2Sc3ccccc3N2CC(C#N)(c2nc3ccccc3s2)C1 (stereo not drawn) | 0.241 | 0.612 |
| c1ccc2c(c1)CCC(Cc1ccc3ccccc3c1)C2 (stereo not drawn) | 0.223 | 0.601 |
| S=C1NC2(CCCCCC2)Cc2ccccc21 | 0.252 | 0.616 |
| CCC/C=N/NC(=O)c1ccc(N2CCCC2=O)cc1 | 0.26 | 0.647 |
| CC(=O)N(CC(=O)Nc1ccc(C)cc1)c1ccccc1 | 0.214 | 0.646 |
| Cc1onc(-c2c(F)cccc2Cl)c1C(=O)Oc1ccccc1 | 0.273 | 0.617 |
| CC#CCn1c(N2CCCC(=O)C2)nc2c1c(=O)n(Cc1nc(C)c3ccccc3n1)c(=O)n2C | 0.254 | 0.628 |
| COc1ccc(NC(=O)C(C)c2ccc(CC(C)C)cc2)cc1 (stereo not drawn) | 0.243 | 0.592 |
| CCOC(=O)COc1nc(-c2ccccc2)cc(-c2ccccc2)c1C#N | 0.251 | 0.629 |
| C=C(C)C(=O)OCc1ccc2ccc3cccc4ccc1c2c34 | 0.25 | 0.643 |
| COc1ccccc1N(CN1C(=O)CCC1=O)C(C)=O | 0.241 | 0.624 |
| Cc1ccc(S(=O)(=O)N(CCc2ccccc2)CC(=O)N/N=C/c2ccccc2OCc2ccccc2)cc1 | 0.236 | 0.607 |
| Cc1cccc(C2(c3cccc(C)c3)CC2C(=O)Nc2ccc(C#N)cc2)c1 (stereo not drawn) | 0.232 | 0.597 |
| O=C(NCC1CCCO1)C(=O)N/N=C/c1cccc(O)c1 (stereo not drawn) | 0.257 | 0.636 |
| COc1ccc(C(NC(=O)Cc2ccccc2)NC(=O)Cc2ccccc2)cc1OC | 0.238 | 0.617 |

| Structure (SMILES) | plate-normalized OD600 growth (temperature: 15°C, 48 h) | plate-normalized OD600 growth (temperature: 37°C, 24 h) |
| --- | --- | --- |
| COC1(c2ccccc2)CC1C(=O)N/N=C/c1ccc(N(C)C)cc1 (stereo not drawn) | 0.229 | 0.626 |
| O=S(=O)(NC(c1ccc(I)cc1)C(Cl)(Cl)Cl)c1ccccc1 (stereo not drawn) | 0.23 | 0.632 |
| Cc1ccc(C)c(NC(=O)C(=O)NCCCn2ccnc2)c1 | 0.256 | 0.611 |
| O=C(CSc1nc2ccccc2s1)Nc1cccn2cc(-c3ccccc3)nc12 | 0.263 | 0.614 |
| CC1(CC(=O)N/N=C/c2ccc(Cl)c([N+](=O)[O-])c2)OCCO1 | 0.247 | 0.618 |
| COc1ccc(C)cc1NC(=O)C/C(C)=N/NC(=O)COc1cccc(C)c1 | 0.233 | 0.62 |
| CC(C)(O)C#Cc1ccc(/C=N\O)cc1 | 0.251 | 0.627 |
| CC(=O)N(/C=C/C=C/C=C1\Sc2ccccc2C1=O)c1ccccc1 | 0.247 | 0.611 |
| COc1cc(/C=C(\C#N)c2nn(CCO)c(N)c2C#N)ccc1OCc1ccc(C)cc1 | 0.244 | 0.601 |
| O=C1N/C(=N\N=C\c2ccc(Cl)cc2)S/C1=C/c1ccc(-c2ccc(C(=O)O)c(Cl)c2)o1 | 0.256 | 0.616 |
| COc1cc(/C=C2\C(=N)N3N=C(C(F)(F)F)SC3=NC2=O)cc(Cl)c1OCc1ccccc1 | 0.246 | 0.626 |
| Cn1c(=O)[nH]c(=O)c2c1nc(SCc1ccccc1)n2CCCc1ccccc1 | 0.266 | 0.62 |
| Cc1ccc(-n2[nH]c(C)c(C=Nc3cccc(N=Cc4c(C)[nH]n(-c5ccc(C)cc5)c4=O)n3)c2=O)cc1 | 0.249 | 0.626 |
| O=C1CC(C(F)(F)C(F)(F)C(F)(F)C(F)F)=Nc2ccccc2N1 | 0.25 | 0.623 |
| COc1ccc2c(O[C@@H]3C[C@H]4C(=O)N[C@]5(C(=O)NS(=O)(=O)C6CC6)C[C@H]5/C=C\CCCCN(C)C(=O)[C@@H]4C3)cc(-c3nc(C(C)C)cs3)nc2c1C | 0.262 | 0.615 |
| N#Cc1c(N)c(S(=O)(=O)c2ccccc2)coc1=N | 0.249 | 0.604 |
| O=S(=O)(N=C(c1ccccc1)N1CCCCC1)c1ccccc1 | 0.232 | 0.621 |
| O=C(CSc1nc2ccccc2[nH]1)Nc1nc2ccccc2s1 | 0.244 | 0.604 |
| COc1ccc(/C=N/Nc2nnnn2-c2cccc3ccccc23)cc1OC | 0.253 | 0.627 |
| Cc1cc(C(C)(C)C)oc1C(=O)N1CCNCC1 | 0.251 | 0.611 |
| Cc1cc(=O)n(-c2ccccc2)n1CNc1ccc(Cl)cc1Cl | 0.246 | 0.594 |
| CCN(CC)c1ccc(NC(=O)c2c(F)cccc2F)c(N(CC)CC)n1 | 0.235 | 0.602 |
| CSCCC(NC(=O)c1ccccc1)C(=O)OCC(=O)Nc1ccc(C)c(Cl)c1 (stereo not drawn) | 0.246 | 0.612 |
| Cc1cc2c(cc1C)CN(c1ccc(C(=O)N/N=C/c3ccccc3O)cc1)C2 | 0.25 | 0.63 |

| Structure (SMILES) | plate-normalized OD600 growth (temperature: 15°C, 48 h) | plate-normalized OD600 growth (temperature: 37°C, 24 h) |
| --- | --- | --- |
| CCOC(=O)c1c(-c2ccc(F)cc2)csc1N | 0.24 | 0.609 |
| CC1(C)CC(=O)C2=C(C1)N(c1cccc([N+](=O)[O-])c1)C(N)=C(C#N)C2c1cccnc1 (stereo not drawn) | 0.256 | 0.613 |
| O=S1(=O)C=C(N2CCOCC2)c2ccccc21 | 0.241 | 0.624 |
| Cc1cccc(Nc2cc(C)nc3ccccc23)c1 | 0.256 | 0.617 |
| NC(N)=NC(N)=Nc1ccccc1C(F)(F)F | 0.243 | 0.604 |
| CCSc1nc(NC(C)=O)nn1C(C)=O | 0.249 | 0.623 |
| Fc1cnc(N/N=C/c2ccc(Sc3ccccc3)o2)nc1N1CCOCC1 | 0.252 | 0.611 |
| COC(=O)C(NS(=O)(=O)c1ccccc1)C(C)C (stereo not drawn) | 0.232 | 0.636 |
| CCOC(=O)c1cnn(-c2ccc(NS(=O)(=O)c3ccc(Cl)cc3)cc2)c1C(F)(F)F | 0.233 | 0.609 |
| O=[N+]([O-])c1cnc(Sc2n[nH]c(-c3cccs3)n2)s1 | 0.225 | 0.607 |
| CC(=O)N1c2ccccc2NC2=C(C(=O)CC(c3ccc(Cl)c(Cl)c3)C2)C1c1cccnc1 (stereo not drawn) | 0.245 | 0.615 |
| CC1(O)N(CCN)C(=O)OC12CCCCC2 (stereo not drawn) | 0.269 | 0.626 |
| O=C(O)C1C2C=CC(C2)C1C(=O)NCCc1ccncc1 (stereo not drawn) | 0.242 | 0.651 |
| COc1ccc2nc(NC(=O)c3cc4ccccc4o3)sc2c1 | 0.259 | 0.62 |
| Cc1cc(S(=O)(=O)NCCNc2nccc(C(F)(F)F)n2)c(C)cc1Cl | 0.222 | 0.587 |
| NC1=Nc2nc(Nc3ccccc3)sc2/C(=C/c2ccc(O)cc2)N1 | 0.248 | 0.628 |
| CN1N=C(SCc2ccc(Cl)cc2Cl)Sc2c1cnn(C)c2=O | 0.25 | 0.591 |
| CCCCCCNC(=O)NCCCCCC | 0.278 | 0.617 |
| N#C/C(=C\c1ccccc1Cl)c1nc2ccccc2[nH]1 | 0.26 | 0.624 |
| COc1ccc(-c2cn3c4c(=O)n(C)c(=O)n(C)c4nc3n2CCCCO)cc1 | 0.239 | 0.619 |
| C/C(=N/NC(=O)COc1cccc(Cl)c1)c1ccc(Cl)cc1 | 0.248 | 0.631 |
| Cc1nc2sc(C(=O)c3ccc(Cl)cc3)c(N)c2c(C)c1C(=O)Nc1ccccc1 | 0.233 | 0.604 |

Looked up one by one from the entries so far (5):

| Structure (SMILES) | plate-normalized OD600 growth (temperature: 15°C, 48 h) | plate-normalized OD600 growth (temperature: 37°C, 24 h) |
| --- | --- | --- |
| COc1ccc(-c2cn3c4c(=O)n(C)c(=O)n(C)c4nc3n2CCCCO)cc1 | 0.239 | 0.619 |
| COC(=O)C(NS(=O)(=O)c1ccccc1)C(C)C (stereo not drawn) | 0.232 | 0.636 |
| COc1ccc2nc(NC(=O)c3cc4ccccc4o3)sc2c1 | 0.259 | 0.62 |
| C/C(=N/NC(=O)COc1cccc(Cl)c1)c1ccc(Cl)cc1 | 0.248 | 0.631 |
| CCCCCCNC(=O)NCCCCCC | 0.278 | 0.617 |

From the supplement of paper PMC4371806
